Here are results for one molecule from publication PMC7319344.

This test has as its target T1, Grx3-FLAG (C. albicans) (UniProt Q5AF81).
T1 sequence: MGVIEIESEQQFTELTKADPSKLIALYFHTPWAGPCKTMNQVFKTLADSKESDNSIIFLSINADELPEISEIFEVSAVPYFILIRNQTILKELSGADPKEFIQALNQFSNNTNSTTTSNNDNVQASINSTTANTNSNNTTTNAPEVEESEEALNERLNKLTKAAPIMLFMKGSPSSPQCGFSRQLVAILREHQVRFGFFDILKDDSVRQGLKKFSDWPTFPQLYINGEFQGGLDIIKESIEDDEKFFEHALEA
Put plainly: co-IP; lysates of cells grown in YPM with or without 500 uM BPS for 6hr; Grx3-FLAG precipitated with anti-FLAG M2 affinity gel at 4°C for 2hr, washed five times with lysis buffer, western blot for MYC.

No constants are given. Whether binding was seen depends on the method and setting. Binding seen in cells or lysates may run through a third protein. Some entries that bind do so weakly or less than the wild type. Sequences can lack the tags named with a protein.

B1: Sfu1-Myc (MAL2-driven Sfu1-13xMYC) (protein, UniProt Q5AP95 1-517)
chain: MPTSPTESIPNSSTKEQPILPKMLPTAKSPHTTPAQSPQNSDHHHHHQQTPPQPTDGQQCSNCGTTKTPLWRRAPDGTLICNACGLYYRSNNTHRPVNLKRPPNTIAVVKEEEGSCKGDGRCNGTGGSAACKGCPAYNNRIVAKKALEKSPKNDSSRAPIDKSLKRSTSTDATTEDESSLAIACFNCGTTITPLWRRDDAGNTICNACGLFYRLHGSHRPIKMKRPTIKRRKRNVSDKKSKDEVQMHSSDQSPIVASDPISPTPHNNENNNNVTNITTTTKTPTRSPHYYQPPPQYPYQHHPINSTTSSAINRLPPISYQSPYQTAPLSHSPMQSSSSYSPGASSVIPSSYYPPYSGSGRIPNGPGPVPGPPPPPPPTQSQPHHQQITTSPTSQSYGSLRAPIHITKRGYTPENIRLPSIQLTSSTSSNSETKLPPITNHSEKCCSNCAGPKSLAPMAIDFTASYRFNNIDSQTKLTKEDQNDSEGVSRDNDTRDENKPIKQEEHRSALSIGKLLNG
With B1, the binding entry was “binds”.
